From publication doi:10.1101/843326
Substitutions are numbered along the chain they refer to. Numbers in names are those of the source. These are yes or no findings as the source states them, for the method shown. For some assays here: In cells and extracts the contact can be indirect. Some entries that bind do so weakly or less than the wild type. Tags and fused reporters may be left off the sequences shown. Values belong to the binder of their own block, whether it stands above or below them.

Protein sequences, listed by entry. Tags and fused reporters are not part of them. Lines headed by an entry give the natural chain unless they say otherwise; changes in a name come on top.
UniProt P49069, whole entry: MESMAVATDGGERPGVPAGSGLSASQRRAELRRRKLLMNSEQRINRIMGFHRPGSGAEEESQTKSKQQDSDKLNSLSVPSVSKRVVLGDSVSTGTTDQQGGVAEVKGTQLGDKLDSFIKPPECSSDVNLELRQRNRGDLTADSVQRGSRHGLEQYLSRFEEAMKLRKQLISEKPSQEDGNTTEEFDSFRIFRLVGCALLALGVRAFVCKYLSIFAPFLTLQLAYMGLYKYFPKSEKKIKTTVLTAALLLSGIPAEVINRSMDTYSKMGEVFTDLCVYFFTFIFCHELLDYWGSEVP
UniProt Q9UGP8, whole entry: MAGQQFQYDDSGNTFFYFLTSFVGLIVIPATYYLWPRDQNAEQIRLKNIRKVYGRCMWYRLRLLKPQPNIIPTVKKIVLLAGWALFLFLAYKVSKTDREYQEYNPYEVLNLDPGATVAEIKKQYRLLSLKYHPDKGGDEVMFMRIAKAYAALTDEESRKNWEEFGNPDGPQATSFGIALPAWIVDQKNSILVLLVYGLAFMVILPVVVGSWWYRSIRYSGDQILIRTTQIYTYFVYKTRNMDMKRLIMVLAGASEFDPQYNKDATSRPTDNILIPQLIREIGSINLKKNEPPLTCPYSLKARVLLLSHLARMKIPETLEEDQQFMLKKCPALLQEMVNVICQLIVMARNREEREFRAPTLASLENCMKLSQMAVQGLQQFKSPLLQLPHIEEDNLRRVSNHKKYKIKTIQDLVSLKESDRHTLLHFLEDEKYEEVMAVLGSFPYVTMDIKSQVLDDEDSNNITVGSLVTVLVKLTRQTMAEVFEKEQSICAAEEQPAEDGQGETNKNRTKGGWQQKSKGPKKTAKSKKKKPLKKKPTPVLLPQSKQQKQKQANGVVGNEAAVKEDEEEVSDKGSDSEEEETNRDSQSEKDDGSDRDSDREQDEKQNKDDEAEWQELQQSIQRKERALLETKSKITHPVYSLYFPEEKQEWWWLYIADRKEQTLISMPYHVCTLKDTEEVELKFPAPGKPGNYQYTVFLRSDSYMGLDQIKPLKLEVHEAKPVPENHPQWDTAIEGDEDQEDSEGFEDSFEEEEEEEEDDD

Columns and labels:
CAML-FLAG = CAML-FLAG (UniProt P49069); assay: co-IP
Sec63-FLAG = Sec63-FLAG (UniProt Q9UGP8); assay: co-IP
CAML-HA = CAML-HA (UniProt P49069); assay: pull-down

binding (CAML-FLAG): binds
B1: WRB-HA-NFT (protein, UniProt O00258 1-174)
chain: MSSAAADHWAWLLVLSFVFGCNVLRILLPSFSSFMSRVLQKDAEQESQMRAEIQDMKQELSTVNMMDEFARYARLERKINKMTDKLKTHVKARTAQLAKIKWVISVAFYVLQAALMISLIWKYYSVPVAVVPSKWITPLDRLVAFPTRVAGGVGITCWILVCNKVVAIVLHPFS

binding (CAML-FLAG): binds weakly
binding (Sec63-FLAG): binds weakly
B2: WRB (K164L)-HA-NFT (protein, UniProt O00258 1-174)
chain: B1 chain with K164L

binding (CAML-FLAG): binds
B3: WRB (K164D)-HA-NFT (protein, UniProt O00258 1-174)
chain: B1 chain with K164D

binding (CAML-HA): binds
B4: WRB (K164L)-FLAG (protein, UniProt O00258 1-174)
chain: B1 chain with K164L
